Data: PubChem BioAssay AID1487 (National Center for Advancing Translational Sciences (NCATS), 2009)
This is one part of the list. The main result of the screen is listed elsewhere. These columns were measured beside it and carry no call. The list favours compounds with an active or inconclusive main result. Words in brackets tell the shape of the fitted curve; partial curves, single points and poor fits give uncertain potencies.

Assay: qHTS Assay for Modulators of Lamin A Splicing
Conditions: HeLa LMNA splicing GFP/RFP minigene ratio, 48 h
How it was run: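 Read-out is the ratio of GFP to DsRed2 object intensity, acquired by 488 nm laser-scanning cytometry on HeLa lamin A-EGFP minigene reporter cells. Compound incubation 48 hrs at 37 °C in Opti-MEM with 2% FBS; DMSO 0.5% final.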

[1] = measured here: GFP splicing reporter channel
[2] = measured here: RFP viability control channel

Row | SMILES | AC50 [1] | AC50 [2]
1 | COc1ccc(N(CC(=O)Nc2ccc(OC)c(Cl)c2)S(=O)(=O)c2c(C)noc2C)cc1 | 3.16 µM [rising, full curve] | 3.98 µM [rising, full curve, poor fit]
2 | Cc1sc2ncnc(N3CCC(C)CC3)c2c1C | – | 17.8 µM [rising, single point]
3 | COc1ccccc1/C=C/C=N/n1c(C2CCCCC2)n[nH]c1=S | – | 14.1 µM [rising, single point]
4 | COc1ccc(CC2(CO)CCN(Cc3ccc(OC(F)(F)F)cc3)CC2)cc1 | 1.78 µM [falling, full curve] | 3.98 µM [falling, full curve, poor fit]
5 | Oc1c(C(Nc2ccccn2)c2ccccn2)ccc2cccnc12 (stereo unspecified) | 12.6 µM [rising, single point] | 11.2 µM [rising, partial curve]
6 | C/C(=C1/C(=O)N(c2ccc([N+](=O)[O-])cc2)N=C1c1ccccc1)N(C)C | 5.01 µM [rising, partial curve] | 7.94 µM [rising, partial curve]
7 | COC(=O)c1ccc(C(=O)OC)c(NC(=S)N2CCC(C)CC2)c1 | – | 0.794 µM [falling, single point]
8 | CCCNC(=S)N(Cc1ccccc1)Cc1nc2ccccc2c(=O)[nH]1 | – | 12.6 µM [rising, partial curve]
9 | O=C1N/C(=N\N=C\c2ccccn2)SC1Cc1cccc(SC(F)F)c1 (stereo unspecified) | 4.47 µM [falling, full curve] | 7.94 µM [falling, partial curve]
10 | Cc1cccc2nc(-c3cccc(NC(=O)c4ccc(Cl)cc4)c3)cn12 | – | 17.8 µM [rising, single point]
11 | O=C(OCc1cccs1)c1ccccc1NS(=O)(=O)c1ccc2c(c1)OCCO2 | – | 35.5 µM [rising, single point]
12 | COc1ccc(C(=O)Nc2ccccc2-c2nnn(CC(=O)N3CCOCC3)n2)cc1 | 5.62 µM [rising, partial curve] | –
13 | O=C(Oc1ccc(-c2cnc3ccccc3n2)cc1)c1cc([N+](=O)[O-])ccc1Cl | 35.5 µM [rising, single point] | –
14 | Fc1cccc(Nc2ncnc3[nH]ncc23)c1 | 35.5 µM [falling, partial curve, poor fit] | –
15 | CCCCCCCCCCOC(=O)C[N+](C)(C)C/C=C(/C)Cl | 20 µM [rising, partial curve, poor fit] | 35.5 µM [rising, single point]

Quoted from the listing:
In AC50 [2], CCCNC(=S)N(Cc1ccccc1)Cc1nc2ccccc2c(=O)[nH]1 is listed with 12.6 µM [rising, partial curve]
In AC50 [2], COc1ccccc1/C=C/C=N/n1c(C2CCCCC2)n[nH]c1=S is listed with 14.1 µM [rising, single point]
